PubChem BioAssay AID743121 – NCATS – 2013
Test: 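Genes whose silencing strengthens cell killing by camptothecin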 (primary screen). System: MDA-MB-231 cells, a human breast cancer line. Reagents: single siRNA against human genes, 20 nM siRNA (0.8 pmol per well). Duration: 120 h (drug added 48 h after transfection, read 72 h later). Challenge: camptothecin 20 nM (about EC30) for 72 h; vehicle 0.1% DMSO in parallel plates. Detection: 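CellTiter-Glo ATP signal, scaled to control siRNA as percent viability; sensitisation given as log2 of untreated divided by camptothecin-treated viability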. Reading the numbers: log2 vehicle/camptothecin viability: higher = stronger sensitisation to camptothecin; viability with camptothecin: higher = more viable cells. Units: viability with camptothecin in % of control. Call rule: 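Each gene scored by redundant siRNA activity (RSA) over its individual siRNA ratios; a gene is called active at p < 0.001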.
Here is an unselected part of about 26,000 reagents tested. 167 of all reagents (0.63%) were called active. 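Calls are per gene from RSA p-values that are not deposited; an individual active-marked siRNA can sensitise only weakly.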 Entries without a mark were called inactive. Reagents against one gene are numbered here. Further read-outs or replicates are left out here. Reagent sequences are not shown.

Against NCR1 #1, the entry reads log2 vehicle/camptothecin viability 0.0931; viability with camptothecin 64.4.
Silencing of NCR1 #2 came out at: log2 vehicle/camptothecin viability -0.552; viability with camptothecin 63.9.
With knock-down of NCR1 #3, the record shows log2 vehicle/camptothecin viability -0.224; viability with camptothecin 83.
NCR1 #4 showed log2 vehicle/camptothecin viability -0.532; viability with camptothecin 58.4.
With knock-down of TPK1 #1, the record shows log2 vehicle/camptothecin viability 0.0603; viability with camptothecin 68.6.
Against TPK1 #2, the entry reads log2 vehicle/camptothecin viability -0.175; viability with camptothecin 107.
TPK1 #3 gave log2 vehicle/camptothecin viability -0.654; viability with camptothecin 81.4.
TPK1 #4 showed log2 vehicle/camptothecin viability 0.2; viability with camptothecin 57.1.
With knock-down of FEM1B #1 the results were log2 vehicle/camptothecin viability 0.0763; viability with camptothecin 95.2.
For FEM1B #2, the entry reads log2 vehicle/camptothecin viability 0.0249; viability with camptothecin 67.7.
Against FEM1B #3, the entry reads log2 vehicle/camptothecin viability -0.266; viability with camptothecin 114.
With knock-down of FEM1B #4, the record shows log2 vehicle/camptothecin viability -0.0998; viability with camptothecin 108.
Knock-down of RAF1 #1 resulted in: log2 vehicle/camptothecin viability -0.228; viability with camptothecin 116.
With knock-down of RAF1 #2 the results were log2 vehicle/camptothecin viability -0.0461; viability with camptothecin 73.
After knock-down of RAF1 #3, the screen gave log2 vehicle/camptothecin viability 0.273; viability with camptothecin 58.1.
Depletion of RAF1 #4 gave: log2 vehicle/camptothecin viability 0.131; viability with camptothecin 49.3.
Against SLC25A47 #1, the values are log2 vehicle/camptothecin viability -0.247; viability with camptothecin 85.6.
Silencing of SLC25A47 #2 resulted in: log2 vehicle/camptothecin viability -0.273; viability with camptothecin 55.7.
For SLC25A47 #3, the entry reads log2 vehicle/camptothecin viability 0.0708; viability with camptothecin 86.4.
SLC25A47 #4 showed log2 vehicle/camptothecin viability -0.641; viability with camptothecin 26.1.
TGM5 #1 gave log2 vehicle/camptothecin viability -0.311; viability with camptothecin 131.
Knock-down of TGM5 #2 came out at: log2 vehicle/camptothecin viability 0.0678; viability with camptothecin 96.5.
Depletion of TGM5 #3 gave: log2 vehicle/camptothecin viability -0.122; viability with camptothecin 39.7.
With knock-down of TGM5 #4, the screen gave log2 vehicle/camptothecin viability -0.236; viability with camptothecin 56.3.
For CYSTM1 #1, the values are log2 vehicle/camptothecin viability -0.418; viability with camptothecin 74.
With knock-down of CYSTM1 #2 the results were log2 vehicle/camptothecin viability -0.276; viability with camptothecin 64.
With knock-down of CYSTM1 #3, the screen gave log2 vehicle/camptothecin viability -0.145; viability with camptothecin 107.
CYSTM1 #4 scored log2 vehicle/camptothecin viability -0.437; viability with camptothecin 95.
For DTX2 #1 the deposit lists log2 vehicle/camptothecin viability 0.486; viability with camptothecin 67.5.
DTX2 #2 scored log2 vehicle/camptothecin viability -0.262; viability with camptothecin 59.4.
Knock-down of DTX2 #3 gave: log2 vehicle/camptothecin viability 0.377; viability with camptothecin 53.3.
After knock-down of DTX2 #4, the screen gave log2 vehicle/camptothecin viability -0.423; viability with camptothecin 71.8.
Against PRSS48 #1, the entry reads log2 vehicle/camptothecin viability -1.47; viability with camptothecin 61.6.
With knock-down of PRSS48 #2, the screen gave log2 vehicle/camptothecin viability -0.0388; viability with camptothecin 92.4.
After knock-down of PRSS48 #3 the results were log2 vehicle/camptothecin viability -0.147; viability with camptothecin 68.2.
After knock-down of PRSS48 #4, the screen gave log2 vehicle/camptothecin viability 0.346; viability with camptothecin 23.3.
CASP10 #1 scored log2 vehicle/camptothecin viability 0.315 (active); viability with camptothecin 30.5.
Knock-down of CASP10 #2 resulted in: log2 vehicle/camptothecin viability 0.124 (active); viability with camptothecin 75.9.
After knock-down of CASP10 #3 the results were log2 vehicle/camptothecin viability 0.494 (active); viability with camptothecin 44.6.
CASP10 #4 gave log2 vehicle/camptothecin viability 0.229 (active); viability with camptothecin 11.5.
APOA5 #1 scored log2 vehicle/camptothecin viability 0.195; viability with camptothecin 24.4.
For APOA5 #2 the deposit lists log2 vehicle/camptothecin viability -0.441; viability with camptothecin 62.2.
After knock-down of APOA5 #3, the screen gave log2 vehicle/camptothecin viability -0.445; viability with camptothecin 82.
RNF103 #1 scored log2 vehicle/camptothecin viability 0.167; viability with camptothecin 63.5.
RNF103 #2 scored log2 vehicle/camptothecin viability -0.127; viability with camptothecin 57.2.
For RNF103 #3, the values are log2 vehicle/camptothecin viability 0.192; viability with camptothecin 99.5.
RNF103 #4 showed log2 vehicle/camptothecin viability 0.837; viability with camptothecin 35.3.

5 entries already listed, arranged by “viability with camptothecin”, low to high:
CYSTM1 #2: log2 vehicle/camptothecin viability = -0.276; viability with camptothecin = 64
DTX2 #1: log2 vehicle/camptothecin viability = 0.486; viability with camptothecin = 67.5
CYSTM1 #1: log2 vehicle/camptothecin viability = -0.418; viability with camptothecin = 74
CYSTM1 #4: log2 vehicle/camptothecin viability = -0.437; viability with camptothecin = 95
CYSTM1 #3: log2 vehicle/camptothecin viability = -0.145; viability with camptothecin = 107
